Data reported in US20230038996A1.
Results are given in words; binding and its absence hold for the method and conditions named. In cells and extracts the contact can be indirect. Some results given as binding are weak or reduced against the parent protein; the word gives no strength.

Protein sequences, listed by entry. Tags and fused reporters are not part of them.
UniProt P01106: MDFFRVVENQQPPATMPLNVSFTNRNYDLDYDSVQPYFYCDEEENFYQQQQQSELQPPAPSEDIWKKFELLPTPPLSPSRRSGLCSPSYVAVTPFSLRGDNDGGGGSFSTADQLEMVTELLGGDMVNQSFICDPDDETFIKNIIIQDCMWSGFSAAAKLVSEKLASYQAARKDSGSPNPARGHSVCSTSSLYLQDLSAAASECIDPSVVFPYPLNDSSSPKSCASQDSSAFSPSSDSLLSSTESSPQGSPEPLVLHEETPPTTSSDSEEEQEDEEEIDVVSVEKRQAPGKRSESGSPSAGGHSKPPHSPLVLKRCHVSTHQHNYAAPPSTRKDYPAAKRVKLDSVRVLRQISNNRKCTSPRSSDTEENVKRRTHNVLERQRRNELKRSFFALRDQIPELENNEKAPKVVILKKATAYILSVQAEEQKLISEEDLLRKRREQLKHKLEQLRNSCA

Molecular target: MYC (UniProt P01106)
Assay: co-immunoprecipitation from glioma stem cell lysates (anti-EYA1 pull-down, immunoblot for c-Myc)

- binding: binds
B1: EYA Transcriptional Coactivator and Phosphatase 1 (EYA1) (enzyme, human, UniProt Q99502 1-592, looked up)
chain: MEMQDLTSPHSRLSGSSESPSGPKLGNSHINSNSMTPNGTEVKTEPMSSSETASTTADGSLNNFSGSAIGSSSFSPRPTHQFSPPQIYPSNRPYPHILPTPSSQTMAAYGQTQFTTGMQQATAYATYPQPGQPYGISSYGALWAGIKTEGGLSQSQSPGQTGFLSYGTSFSTPQPGQAPYSYQMQGSSFTTSSGIYTGNNSLTNSSGFNSSQQDYPSYPSFGQGQYAQYYNSSPYPAHYMTSSNTSPTTPSTNATYQLQEPPSGITSQAVTDPTAEYSTIHSPSTPIKDSDSDRLRRGSDGKSRGRGRRNNNPSPPPDSDLERVFIWDLDETIIVFHSLLTGSYANRYGRDPPTSVSLGLRMEEMIFNLADTHLFFNDLEECDQVHIDDVSSDDNGQDLSTYNFGTDGFPAAATSANLCLATGVRGGVDWMRKLAFRYRRVKEIYNTYKNNVGGLLGPAKREAWLQLRAEIEALTDSWLTLALKALSLIHSRTNCVNILVTTTQLIPALAKVLLYGLGIVFPIENIYSATKIGKESCFERIIQRFGRKVVYVVIGDGVEEEQGAKKHAMPFWRISSHSDLMALHHALELEYL
